The list shows a part of the results.
target: OsWRKY34 (Oryza sativa, UniProt Q0JBA9 1-250); test: protein-binding microarray (RPBM); PBS, 2% BSA, 51.3 ng/ul salmon testes DNA, 50 uM zinc acetate, 200 nM TF, 25 C, 1 h; high values mean tight binding; conditions: protein: recombinant; tags: N-terminal polyhistidine and DsRed monomer fusion (pET32a); label: CyDye5-dUTP incorporated in the synthesized complementary strand; 3' TTTTT single-stranded linker to array surface; dsDNA, one strand shown
Procedure, shortened: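 Transcription factors were each fused at the N-terminus to a polyhistidine tag plus DsRed and expressed in E. coli BL21-CodonPlus before Ni–NTA purification. Binding to a double-stranded custom Agilent array was carried out with 200 nM protein at 25 °C for 1 h in PBS, 2% BSA, salmon testes DNA and 50 µM zinc acetate. The binding signal is per-feature fluorescence intensity, in arbitrary units, on an Axon 4000B scanner.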

Amino acid sequences for entries named in this document (tags omitted).
UniProt Q0JBA9, entry or part of it: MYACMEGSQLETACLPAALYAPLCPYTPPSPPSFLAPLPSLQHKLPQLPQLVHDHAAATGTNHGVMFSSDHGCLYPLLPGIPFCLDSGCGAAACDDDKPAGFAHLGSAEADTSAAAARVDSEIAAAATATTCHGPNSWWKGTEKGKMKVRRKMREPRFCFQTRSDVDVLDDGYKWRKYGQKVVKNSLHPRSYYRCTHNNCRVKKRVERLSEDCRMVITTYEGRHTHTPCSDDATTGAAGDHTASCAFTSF

| Sequence | binding signal |
| --- | --- |
| ACGCCACAACCTTTTTTCCTGGCTAAGCTACTCCCTTAATCGGAGTCACCTAGTGCAG | 9620 fluorescence intensity (a.u.) |
| CAGTTGCCATCTTACTTGCCTATGCAACTGCCCAACTACACGGAGTCACCTAGTGCAG | 8570 fluorescence intensity (a.u.) |
| GCTCTTCACAATCATATGGCATTCTAGAAAGAATCTTTAGCGGAGTCACCTAGTGCAG | 8030 fluorescence intensity (a.u.) |
| CTTTTGCTTGTCACCGGCTACAACTTGCCATTTTGCTCTTCGGAGTCACCTAGTGCAG | 12200 fluorescence intensity (a.u.) |
| TACTTTGCTCTAATACACTTATGTTATGTGTAGGTTTTGCCGGAGTCACCTAGTGCAG | 9190 fluorescence intensity (a.u.) |
| TGTCGCGTGTTCTCTAAACGCACTGTGTCGTGCTTCATCCCGGAGTCACCTAGTGCAG | 11600 fluorescence intensity (a.u.) |
| TTATCTTTTCGCTTATACTTATTAGTCAAATTTTAAAATTCGGAGTCACCTAGTGCAG | 10600 fluorescence intensity (a.u.) |
| CTTTACCTTTTTTAGTTTGCCTTTGTTCTTTGCGGTGTTTCGGAGTCACCTAGTGCAG | 9960 fluorescence intensity (a.u.) |
| ACATTTGTACACCTCAGCGGATCGCACAGCCACCCAACCACGGAGTCACCTAGTGCAG | 9140 fluorescence intensity (a.u.) |
| GACCTATTCGTCGTGACTGAAACACCACGGCACAGACAACCGGAGTCACCTAGTGCAG | 8060 fluorescence intensity (a.u.) |
| TTATACTATCTCGTTTCTCGCACACATGTATGGTGTGTTTCGGAGTCACCTAGTGCAG | 9630 fluorescence intensity (a.u.) |
| GACACCGACACTTATACTGTAGATCCACCCCTGATGACATCGGAGTCACCTAGTGCAG | 10600 fluorescence intensity (a.u.) |
| TTTCTTATAATTCAGCTGCAATTTTTTTTTAAAAAAACAACGGAGTCACCTAGTGCAG | 9480 fluorescence intensity (a.u.) |
| CCCTGCATCCCGCATTTCCTCCACTGCATACCAACACCAACGGAGTCACCTAGTGCAG | 9390 fluorescence intensity (a.u.) |
| CTCTCCCATATACAAACCGTCATCTTTCGTGCACATTTGGCGGAGTCACCTAGTGCAG | 9340 fluorescence intensity (a.u.) |
| GCATGCCCACGGTCATATATGTCTATTTACCTCTCAGATTCGGAGTCACCTAGTGCAG | 9490 fluorescence intensity (a.u.) |
| TCTCTCCCATGTCCGGCCATGGCCGCCACCACCCGATCTCCGGAGTCACCTAGTGCAG | 8120 fluorescence intensity (a.u.) |
| TATATAAATACTACCTCCGTTTCAGGTTATAAGACTTTCTCGGAGTCACCTAGTGCAG | 8700 fluorescence intensity (a.u.) |
| CGCCCACTGTACGTACCGGCATTACAGCTTAGACAACGTTCGGAGTCACCTAGTGCAG | 8460 fluorescence intensity (a.u.) |
| GTCATTGGTGGTTTATATTGTTTGGCTTTTTTCCGGATTACGGAGTCACCTAGTGCAG | 18500 fluorescence intensity (a.u.) |
| CTTCCGCCTCCACCGCCGCCTCGCCGCTCCCATGGCCAGGCGGAGTCACCTAGTGCAG | 8130 fluorescence intensity (a.u.) |

A different layout for part of the listing above.
Sequence	binding signal
TACTTTGCTCTAATACACTTATGTTATGTGTAGGTTTTGCCGGAGTCACCTAGTGCAG	9190 fluorescence intensity (a.u.)
TGTCGCGTGTTCTCTAAACGCACTGTGTCGTGCTTCATCCCGGAGTCACCTAGTGCAG	11600 fluorescence intensity (a.u.)
TTATCTTTTCGCTTATACTTATTAGTCAAATTTTAAAATTCGGAGTCACCTAGTGCAG	10600 fluorescence intensity (a.u.)

More results.

| Sequence | binding signal |
| --- | --- |
| CACTCCTCATCTCCAATCACACCACACTGGTAAGAATCAACGGAGTCACCTAGTGCAG | 8230 fluorescence intensity (a.u.) |
| TTGGAGGACCAATTTGACCATTCACCCTTTTATAATACTGCGGAGTCACCTAGTGCAG | 8230 fluorescence intensity (a.u.) |
| GGCCTCCCTGCTGCCTGATCTCCATTGTTTTCATAAGTCCCGGAGTCACCTAGTGCAG | 8410 fluorescence intensity (a.u.) |
| CTCTCTCTCTCTCTCTCCTTGTGGACTCGCAGTCTCGCTCCGGAGTCACCTAGTGCAG | 11100 fluorescence intensity (a.u.) |
| CTCTCGCTCATCCCAATCCCCATCACGAGCGCCCCAGAATCGGAGTCACCTAGTGCAG | 11600 fluorescence intensity (a.u.) |
| CCTTGTCTTTTGTCTGCTTGATATTGTACTACGTAGATCCCGGAGTCACCTAGTGCAG | 9830 fluorescence intensity (a.u.) |
| ACCCTGCTCGGTTTCTTGATTCTCTCTCTGCCTGTCGTCGCGGAGTCACCTAGTGCAG | 9680 fluorescence intensity (a.u.) |
| GTCCTGCCGAGATTTAGTCAACTACTATTAGGTATGTGGTCGGAGTCACCTAGTGCAG | 9890 fluorescence intensity (a.u.) |
| TTGGTTTGTTCCTCTTTGTTTTTTGGGTAACCTTTGAGCCCGGAGTCACCTAGTGCAG | 8080 fluorescence intensity (a.u.) |
| TTTCTCCCGCATGGATCCTGCACGAGCATTTTTTTTATTTCGGAGTCACCTAGTGCAG | 9480 fluorescence intensity (a.u.) |
| GTCCGCTTTTCTCTTCCTCGTCTTCTTCTCCGGCGAGCTCCGGAGTCACCTAGTGCAG | 10600 fluorescence intensity (a.u.) |
| ACCCAATTATTAACCTTTTGCCCTTAACTGCATCTCCCGCCGGAGTCACCTAGTGCAG | 9850 fluorescence intensity (a.u.) |
| ATGCCATTGACCTCGAAACCATTGCACAACCTCATCGTCTCGGAGTCACCTAGTGCAG | 8950 fluorescence intensity (a.u.) |
| TACCAATGGAGTAAACAACAGCCAATATTGCATCTGCTTTCGGAGTCACCTAGTGCAG | 8430 fluorescence intensity (a.u.) |
| ATCTGATTTTTATTTTCAGCATATGCATCGTTTTCATGTTCGGAGTCACCTAGTGCAG | 10200 fluorescence intensity (a.u.) |
| ACCATTTTTGTCAAGCCATTACAGCGCCTGATGTCCAAGTCGGAGTCACCTAGTGCAG | 10800 fluorescence intensity (a.u.) |
| CTGCCGCCTCTAATTGACAAGCATTCAACCATATATATGTCGGAGTCACCTAGTGCAG | 9450 fluorescence intensity (a.u.) |
| CGTTCTGCCTCGCCTACATGATCTGTGAGCCAGCTTAGCCCGGAGTCACCTAGTGCAG | 9000 fluorescence intensity (a.u.) |
| TAAGACAAATGGTCAAACGTTGAACACGGATATCCATGGCCGGAGTCACCTAGTGCAG | 8030 fluorescence intensity (a.u.) |
| AATTTCCCCATCGATCATTTTATTTTTTTTCTTATAAATACGGAGTCACCTAGTGCAG | 10700 fluorescence intensity (a.u.) |
| AAGCACTCACTCTCTCTTGCTAGCTCTCTCCACCACAAGACGGAGTCACCTAGTGCAG | 9100 fluorescence intensity (a.u.) |
